Data: PubChem BioAssay AID1347076 (National Center for Advancing Translational Sciences (NCATS), 2019)
About 13,000 (3.2%) of roughly 400,000 compounds were called active. This list was built around the results that the source calls inconclusive (neither active nor inactive); the mix of calls is not that of the screen. The call rests on the fitted dose curve; in most records, active means well fitted cell-killing curve with a large enough effect; inconclusive means small, poorly fitted or top-dose-only effect, or effect the other way; inactive means flat fitted curve, though single readings scatter. Potencies of inconclusive entries are doubtful fits and often do not repeat.

Assay: qHTS assay for MDR1-selective chemotherapeutics: Primary screen using the drug-selected MDR subline cells KB-V1; further: nearly all actives have a fitted effect of over 60% in size
Details: KB-V1 MDR cells viability, CellTiter-Glo, 72 h; series mostly up to 46.1 µM
Procedure, shortened: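 Following 72 h at 37 degrees C with compound, KB-V1 cell viability was read by CellTiter-Glo luminescence, medium being phenol-red-free DMEM plus 10% FBS; concentration-response parameters came from normalized, curve-fitted qHTS data.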
Potency means the concentration at half of the fitted maximal effect.

| Compound | Potency |
| --- | --- |
| CCc1ccc(CN(C)Cc2nc(Cc3cccc(C(F)(F)F)c3)no2)nc1 | inconclusive: 20.6 µM [cytotoxic, single point] |
| N#Cc1c(-c2cccc([N+](=O)[O-])c2)nc2n(c1=O)CCS2 | inconclusive: 11.6 µM [rising, partial curve, poor fit] |
| COc1ccc(S(=O)(=O)Nc2ccc3c(c2)C(=O)N([C@H](C)CO)C[C@H](C)[C@@H](CN(C)S(=O)(=O)c2cccs2)O3)cc1 | inconclusive: 9.2 µM [rising, partial curve] |
| Cc1nc2cc(C(=O)N3CCN(C)CC3)ccc2n1C | inconclusive: 29.1 µM [rising, single point] |
| O=C(C1=C[C@H](c2ccc(C(F)(F)F)cc2)C[C@H](OCc2ccc(CO)cc2)O1)N1CCN(Cc2ccc3c(c2)OCO3)CC1 | inconclusive: 29.1 µM [cytotoxic, single point] |
| Cc1cc(C(=O)Nc2ccc(OCc3ccccc3)cc2)c(C)o1 | inconclusive: 23.1 µM [cytotoxic, single point] |
| COc1ccc(OC)c2[nH]c(=O)c(CCNS(=O)(=O)c3ccccc3)cc12 | active: 16.4 µM |
| COc1ccc(N2CCN(C(=O)NCc3ccc(C)cc3)CC2)cc1 | active: 5.8 µM |
| COc1ccc2nc(N=Nc3ccc(N(C)C)cc3)sc2c1 | inconclusive: 25.9 µM [cytotoxic, single point] |
| COc1cccc(CNC(=O)c2cc(S(=O)(=O)N3CCCCC3)ccc2C)c1 | inactive |
| CC#CC(=O)N1CCC(n2nccc2NC(=O)CCc2ccccc2)CC1 | inconclusive: 5.8 µM [rising, partial curve, poor fit] |
| COc1ccc(COC(=O)c2cc([N+](=O)[O-])ccc2N2CCOCC2)cc1F | active: 0.0731 µM |
| CCC1S/C(=N/N=C/c2cccs2)NC1=O (stereo not given) | inactive |
| CCCC12C(=O)C(C)(C(c3ccccc3)=C1c1ccccc1)C1C(=O)N(c3ccc(C)cc3)C(=O)C12 (stereo not given) | inactive |
| Cc1ccc(NC(=O)COC(=O)CSC(=S)N2CCOCC2)cc1 | inactive |
| CC(=O)c1c(C)[nH]c(C(=O)OCc2ccc(F)cc2Cl)c1C | inconclusive: 9.2 µM [cytotoxic, partial curve] |
| CN(C(=O)CSc1ncc(C(F)(F)F)cc1Cl)c1c(N)n(Cc2ccccc2)c(=O)[nH]c1=O | inconclusive: 20.6 µM [rising, single point] |
| COc1ccc(Cl)cc1NC(=O)C[n+]1cccc(C)c1 | inactive |
| O=C(Nc1cc(Cl)ccc1-n1cncn1)c1ccc([N+](=O)[O-])s1 | inconclusive: 29.1 µM [cytotoxic, single point] |
| O=[N+]([O-])c1ccc(N2CCN(c3ccccc3Cl)CC2)cn1 | inconclusive: 1.03 µM [cytotoxic, full curve, poor fit] |
| COc1cc(O)c(C(CC(=O)N2CCC(c3ccccc3)CC2)c2ccc3c(c2)OCO3)c(OC)c1 (stereo not given) | inconclusive: 63.1 µM [cytotoxic, single point] |
| C=CCOc1ccc(/C=C/C(=O)OCC(=O)Nc2c(C)n(C)n(-c3ccccc3)c2=O)cc1 | inactive |

| Compound | Potency |
| --- | --- |
| Cn1cc(C(=O)NCc2ccc(F)cc2)c(=O)c2cc(S(=O)(=O)N3CCCCC3)ccc21 | inconclusive: 7.31 µM [cytotoxic, partial curve] |
| O=S(=O)(c1ccccc1)N(CC(O)Cn1c2ccccc2c2ccccc21)c1ccccc1 (stereo not given) | inconclusive: 23.1 µM [cytotoxic, single point] |
| COc1ccc(OCC(=O)Nc2ccc(N3CCN(C(=O)c4ccccc4)CC3)c(Cl)c2)cc1 | inconclusive: 10.3 µM [cytotoxic, partial curve] |
| CC1CC(C)CN(S(=O)(=O)c2ccccc2[N+](=O)[O-])C1 (stereo not given) | inconclusive: 20.6 µM [cytotoxic, single point] |
| CC(C)(C)OC(=O)N1CCC(NC(=O)c2ncn(Cc3ccccc3)c2C(=O)NC2CCN(C(=O)OC(C)(C)C)CC2)CC1 | inconclusive: 29.1 µM [cytotoxic, single point] |
| CC(C)c1ccc(Nc2nc3ccc(C(=O)c4ccccc4)cc3n3cnnc23)cc1 | inconclusive: 18.4 µM [cytotoxic, single point] |
| FC(F)(F)c1nnc2ccc(N3CCCCC3)nn12 | inconclusive: 16.4 µM [cytotoxic, single point] |
| CCOc1ccc(-c2nnc(Nc3ccc(OC)c(C(=O)N4CCCCC4)c3)c3ccccc23)cc1 | inconclusive: 23.1 µM [cytotoxic, single point] |
| COc1ccccc1CNC(=O)C(CCSC)NC(=O)C1CCC(C)CC1 (stereo not given) | active: 4.11 µM |
| Cc1ccccc1-c1noc(N)c1C#N | inconclusive: 0.731 µM [rising, full curve] |
| CC(O)CNc1nc2ccccc2n1CC(=O)NC12CC3CC(CC(C3)C1)C2 (stereo not given) | inactive |
| CCc1ccc(CNC(=O)c2cc3c(=O)oc4ccc(C)cc4c3s2)cc1 | inconclusive: 29.1 µM [rising, single point] |
| CC(C)(C)OC(=O)NCCCCCc1nnc(SCc2cccc(F)c2)o1 | inconclusive: 7.31 µM [cytotoxic, partial curve] |
| CCC(=O)Oc1ccc(NC(=O)c2ccc(S(=O)(=O)N3CCCC3)cc2)cc1 | inactive |
| Cc1ccc(NC(=O)Nc2nnc(N3CCCCC3)s2)c(C)c1 | inconclusive: 23.1 µM [rising, partial curve] |
| O=C1C(Cl)=C(NCC2CCCO2)C(=O)N1Cc1ccccc1 (stereo not given) | inconclusive: 20.6 µM [cytotoxic, partial curve, poor fit] |
| CC1=C(C(=O)Nc2ccccc2)C(c2ccccc2[N+](=O)[O-])NC(=O)N1 (stereo not given) | inconclusive: 29.1 µM [rising, single point] |
| Cc1cc(C)nc(SCC(=O)OCC(=O)Nc2ccccc2)n1 | inconclusive: 16.4 µM [rising, partial curve, poor fit] |
| O=C(Nc1ccc(Cl)cc1)C1C2C=CC3(O2)C1C(=O)N(CCCN1CCCCC1)C3C(=O)NC1CCCCC1 (stereo not given) | inconclusive: 29.1 µM [rising, single point] |
| Cc1cccc(-c2cc3nc4c(c(NCc5ccco5)n3n2)CCCC4)c1 | inconclusive: 6.51 µM [cytotoxic, full curve, poor fit] |
| CS(=O)c1ccccc1-c1nc(-c2cccc(Cl)c2)no1 (stereo not given) | inactive |
| CCOc1ccc(-n2c(SCc3ccc([N+](=O)[O-])cc3)nnc2-c2ccc(OC)cc2)cc1 | inconclusive: 10.3 µM [cytotoxic, partial curve] |

A second format for some results above:
Compound | Potency
CCC(=O)Oc1ccc(NC(=O)c2ccc(S(=O)(=O)N3CCCC3)cc2)cc1 | inactive
Cc1ccc(NC(=O)Nc2nnc(N3CCCCC3)s2)c(C)c1 | inconclusive: 23.1 µM [rising, partial curve]

A draw from above in order of length of the SMILES, low to high:

| Compound | Potency |
| --- | --- |
| CS(=O)c1ccccc1-c1nc(-c2cccc(Cl)c2)no1 (stereo not given) | inactive |
| CC#CC(=O)N1CCC(n2nccc2NC(=O)CCc2ccccc2)CC1 | inconclusive: 5.8 µM [rising, partial curve, poor fit] |
| CCOc1ccc(-n2c(SCc3ccc([N+](=O)[O-])cc3)nnc2-c2ccc(OC)cc2)cc1 | inconclusive: 10.3 µM [cytotoxic, partial curve] |

Next compounds follow:

| Compound | Potency |
| --- | --- |
| CCCc1cc(=O)oc2c(C)c3occ(C)c3cc12 | inconclusive: 14.6 µM [cytotoxic, single point] |
| CCOc1ccc(-n2c(=O)c3c4c(sc3n(Cc3cccc(Cl)c3)c2=O)CCCC4)cc1 | inconclusive: 29.1 µM [rising, single point] |
| CCN(C(=O)c1cnc(NC(C)C)cc1C(F)(F)F)c1ccc(Cl)cc1Cl | inconclusive: 16.4 µM [cytotoxic, partial curve] |
| Cc1nc2c(=O)[nH]c(=S)n(C)c2nc1C | inactive |
| CCOc1cccc(/C=N/NC(=O)c2cccnc2)c1O | inconclusive: 3.26 µM [cytotoxic, full curve, poor fit] |
| O=c1c2ccccc2nc2n1-c1ccccc1CCC2 | inconclusive: 18.4 µM [cytotoxic, single point] |
| Cc1ccc(NC(=O)Cn2c(=O)n(-c3ccc(CC(=O)NCC4CCCO4)cc3)c(=O)c3ccccc32)cc1 (stereo not given) | inconclusive: 29.1 µM [rising, single point] |
| COc1ccc(Br)cc1S(=O)(=O)n1ccnc1C | inconclusive: 23.1 µM [rising, partial curve, poor fit] |
| Cc1ccc(Cl)cc1N1CCN(C(=O)CN(C2CCCCC2)S(C)(=O)=O)CC1 | inactive |
| Cc1ccc(S(=O)(=O)N2CCC(C(=O)N3CCCCCCC3)CC2)cc1C | inconclusive: 7.31 µM [cytotoxic, partial curve, poor fit] |
| COc1ccc(C2=CC(c3ccc(C)cc3)n3nnnc3N2)cc1 (stereo not given) | inconclusive: 18.4 µM [cytotoxic, single point] |
| COc1ccc(-n2cc(-c3ccc(OC(F)F)cc3)[n+]3c2CCCCC3)cc1 | inactive |
| CCN(CC)C(=O)COc1ccc(/C=C(\C#N)S(=O)(=O)c2ccccc2)cc1OC | inconclusive: 25.9 µM [rising, single point] |
| CC(=O)N[C@H]1C[C@@H]1c1ccccc1 | inconclusive: 25.9 µM [rising, partial curve, poor fit] |
| CCN(CC#CCC1(O)c2ccccc2-c2ccccc21)CCO | inactive |
| CCCCN1CC(c2nc3ccccc3n2CCCCOc2c(C)cccc2C)CC1=O (stereo not given) | inconclusive: 18.4 µM [cytotoxic, partial curve] |
| O=C1CCC(=O)N1CCCCCc1nc(-c2ccccc2)no1 | inconclusive: 20.6 µM [cytotoxic, single point] |
| CCCCN1C[C@H](CSC)[C@@H](CC(=O)Nc2ccc(OC)cc2)C1=O | inconclusive: 3.26 µM [cytotoxic, full curve] |
| CCOC(=O)N1CCN(c2ncnc3c2[nH]c2ccc(OC)cc23)CC1 | active: 14.6 µM |
| Cc1ccc(/C=C(\C#N)c2nc(-c3cc4c(ccc5ccccc54)oc3=O)cs2)cc1 | inconclusive: 18.4 µM [rising, single point] |
| CCOC(=O)c1ccc(N2C(=O)c3n[nH]c(C)c3C2c2ccc(OC)c(OC)c2)cc1 (stereo not given) | inconclusive: 7.31 µM [cytotoxic, partial curve] |
